Source: PubChem BioAssay AID1053208 (Peter MacCallum Cancer Centre, 2014)
Test: 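Synthetic lethal interactions between gene loss and doxorubicin in osteosarcoma cells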 (primary screen). Cell system: mouse osteosarcoma cells, early-passage culture from an engineered mouse model of fibroblastic bone tumour. Reagents: siRNA pool against mouse genes, 40 nM. Timing: about 120 h (48 h before drug, then 72 h with drug). Treatment: doxorubicin 100 nM for 72 h, roughly 30-40% inhibitory dose. Measured: 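Luminescent ATP signal taken as viability with or without 100 nM doxorubicin for 72 h; mean of two wells set against non-targeting siRNA and turned into robust z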. Scale: viability z-score with doxorubicin: higher = more viable cells under doxorubicin; viability z-score without drug: higher = more viable cells with knock-down alone; z-score of drug to no-drug ratio: higher = less drug sensitisation by knock-down. Hit rule: 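a pool counts as active when its viability z-score with doxorubicin is -2 or below and its z-score without drug lies between -2 and 2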.
The deposit covers about 17,000 reagents; shown is a random part of them. 788 of them (4.7%) were called active. 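Calls rest on z-score classes alone; an extra cut-off of viability at most 70% of control was not applied to them.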 Not all columns of the deposit are shown.

gene	combined z-score class	viability z-score with doxorubicin	viability z-score without drug	z-score of drug to no-drug ratio	outcome
Sp100 (nuclear antigen Sp100)	no change with or without drug	-0.22	-0.17	0	inactive
Klk14 (kallikrein related-peptidase 14)	no change with or without drug	0.67	1.18	0	inactive
Sla (src-like adaptor)	no change with or without drug	0	-0.51	0.45	inactive
Eif2d (eukaryotic translation initiation factor 2D)	no change with or without drug	-0.22	1.18	-0.9	inactive
Tgoln1 (trans-golgi network protein)	no change with or without drug	-1.57	-1.18	-0.79	inactive
Mrgprg (MAS-related GPR, member G)	no change with or without drug	-0.67	-0.84	0	inactive
Eola1 (endothelium and lymphocyte associated ASCH domain 1)	no change with or without drug	0.22	0.34	0.11	inactive
Tasp1 (taspase, threonine aspartase 1)	no change with or without drug	0.11	0.17	0.11	inactive
Dnajc3 (DnaJ heat shock protein family (Hsp40) member C3)	no change with or without drug	0.9	1.35	0.11	inactive
Tmc5 (transmembrane channel-like gene family 5)	no change with or without drug	1.35	0.51	1.12	inactive
Anapc5 (anaphase-promoting complex subunit 5)	no change with or without drug	-1.8	-1.85	-0.56	inactive
Haus7 (HAUS augmin-like complex, subunit 7)	no change with or without drug	-0.22	1.18	-0.9	inactive
Ssty1 (spermiogenesis specific transcript on the Y 1)	no change with or without drug	0.56	1.18	-0.11	inactive
RASIP1	high cell count without drug only	1.91	2.19	0.56	inactive
Pdcl3 (phosducin-like 3)	no change with or without drug	-1.35	-0.17	-1.24	inactive
Pbx3 (pre B cell leukemia homeobox 3)	no change with or without drug	0.67	-0.51	1.24	inactive
Zfp811 (zinc finger protein 811)	no change with or without drug	-0.22	0.17	-0.22	inactive
Terf2 (telomeric repeat binding factor 2)	no change with or without drug	-0.67	-1.01	0.11	inactive
4933431E20Rik (RIKEN cDNA 4933431E20 gene)	no change with or without drug	-0.11	0.51	-0.34	inactive
Sbp (spermine binding protein)	no change with or without drug	1.35	0.17	1.35	inactive
Defb15 (defensin beta 15)	no change with or without drug	-1.57	-0.17	-1.46	inactive
Slc16a3	low cell count with doxorubicin only	-4.72	-0.51	-4.61	active
Tmem19 (transmembrane protein 19)	high cell count with doxorubicin only	2.59	1.69	1.46	inactive
Or6c207 (olfactory receptor family 6 subfamily C member 207)	high cell count with and without drug	2.02	2.7	0.34	inactive
Bcl2a1b (B cell leukemia/lymphoma 2 related protein A1b)	no change with or without drug	0.79	0.84	0.34	inactive
H2bc26 (H2B clustered histone 26)	no change with or without drug	0.22	0.17	0.22	inactive
Hsh2d (hematopoietic SH2 domain containing)	high cell count with doxorubicin only	2.47	-0.51	3.15	inactive
Lcn3 (lipocalin 3)	high cell count without drug only	1.69	2.19	0.34	inactive
Cdo1 (cysteine dioxygenase 1, cytosolic)	no change with or without drug	-0.45	0.17	-0.45	inactive
Clpb (ClpB caseinolytic peptidase B)	no change with or without drug	-0.22	0.84	-0.67	inactive
Phb1 (prohibitin 1)	low cell count with doxorubicin only	-2.14	-1.85	-1.01	active
Or11h4b (olfactory receptor family 11 subfamily H member 4B)	no change with or without drug	-0.45	1.18	-1.12	inactive
Txndc9 (thioredoxin domain containing 9)	no change with or without drug	-0.11	-1.35	1.01	inactive
Ren2 (renin 2 tandem duplication of Ren1)	no change with or without drug	-0.45	-1.18	0.45	inactive
Strc (stereocilin)	no change with or without drug	-0.67	-0.51	-0.22	inactive
Sfn (stratifin)	no change with or without drug	0.45	1.01	-0.11	inactive
Trim67 (tripartite motif-containing 67)	no change with or without drug	-1.01	-0.34	-0.79	inactive
Or5j3 (olfactory receptor family 5 subfamily J member 3)	no change with or without drug	1.35	-0.17	1.69	inactive
Rad21 (RAD21 cohesin complex component)	no change with or without drug	-1.57	-0.84	-1.01	inactive
Psme3	high cell count with and without drug	2.36	2.02	1.01	inactive
S1pr4 (sphingosine-1-phosphate receptor 4)	no change with or without drug	-0.67	0.84	-1.12	inactive
Lctl (lactase-like)	no change with or without drug	1.57	0.84	1.12	inactive
Mylk (myosin, light polypeptide kinase)	no change with or without drug	1.46	-0.17	1.8	inactive
Serpinb9c (serine (or cysteine) peptidase inhibitor, clade B, member 9c)	no change with or without drug	0.79	0.84	0.34	inactive
Rell1 (RELT-like 1)	no change with or without drug	-0.22	1.69	-1.12	inactive
Bbs9 (Bardet-Biedl syndrome 9)	no change with or without drug	0.9	0.84	0.45	inactive
Zfpm1 (zinc finger protein, multitype 1)	high cell count with and without drug	2.36	2.19	0.9	inactive
Ttc41 (tetratricopeptide repeat domain 41)	no change with or without drug	1.35	0.51	1.12	inactive
Mob3b (MOB kinase activator 3B)	no change with or without drug	0.45	-1.52	1.8	inactive
S100a6 (S100 calcium binding protein A6 (calcyclin))	no change with or without drug	-0.45	0	-0.34	inactive
Ifi30 (interferon gamma inducible protein 30)	no change with or without drug	-0.45	-1.01	0.34	inactive
Dennd4b (DENN domain containing 4B)	no change with or without drug	-1.12	-0.34	-0.9	inactive
Cep135 (centrosomal protein 135)	no change with or without drug	0.56	1.85	-0.56	inactive
Pigb (phosphatidylinositol glycan anchor biosynthesis, class B)	no change with or without drug	0	1.35	-0.79	inactive
Oxsr1 (oxidative-stress responsive 1)	no change with or without drug	0.11	-1.01	1.01	inactive
Zfp647 (zinc finger protein 647)	no change with or without drug	-1.01	1.18	-1.69	inactive
A430093F15Rik (RIKEN cDNA A430093F15 gene)	no change with or without drug	-1.35	-0.17	-1.24	inactive
Zfp398 (zinc finger protein 398)	no change with or without drug	1.69	1.85	0.56	inactive
Mlxip (MLX interacting protein)	high cell count with doxorubicin only	2.59	1.69	1.46	inactive
Fam216a (family with sequence similarity 216, member A)	no change with or without drug	-0.11	-1.18	0.9	inactive
Wwp1 (WW domain containing E3 ubiquitin protein ligase 1)	no change with or without drug	-0.67	-0.17	-0.45	inactive
Or5an1c (olfactory receptor family 5 subfamily AN member 1C)	no change with or without drug	0.22	1.18	-0.45	inactive
Mcph1 (microcephaly, primary autosomal recessive 1)	no change with or without drug	0.9	-0.51	1.46	inactive

Targets above whose gene name begins with B or b (2):
gene	combined z-score class	viability z-score with doxorubicin	viability z-score without drug	z-score of drug to no-drug ratio	outcome
Bcl2a1b (B cell leukemia/lymphoma 2 related protein A1b)	no change with or without drug	0.79	0.84	0.34	inactive
Bbs9 (Bardet-Biedl syndrome 9)	no change with or without drug	0.9	0.84	0.45	inactive
